Reference: the supplement of paper PMC10849652
The list shows a part of the results.

Chains of the proteins cited; added tags and fusions are not shown. Lines headed by an entry give the natural chain unless they say otherwise; changes in a name come on top.
UniProt Q96D53: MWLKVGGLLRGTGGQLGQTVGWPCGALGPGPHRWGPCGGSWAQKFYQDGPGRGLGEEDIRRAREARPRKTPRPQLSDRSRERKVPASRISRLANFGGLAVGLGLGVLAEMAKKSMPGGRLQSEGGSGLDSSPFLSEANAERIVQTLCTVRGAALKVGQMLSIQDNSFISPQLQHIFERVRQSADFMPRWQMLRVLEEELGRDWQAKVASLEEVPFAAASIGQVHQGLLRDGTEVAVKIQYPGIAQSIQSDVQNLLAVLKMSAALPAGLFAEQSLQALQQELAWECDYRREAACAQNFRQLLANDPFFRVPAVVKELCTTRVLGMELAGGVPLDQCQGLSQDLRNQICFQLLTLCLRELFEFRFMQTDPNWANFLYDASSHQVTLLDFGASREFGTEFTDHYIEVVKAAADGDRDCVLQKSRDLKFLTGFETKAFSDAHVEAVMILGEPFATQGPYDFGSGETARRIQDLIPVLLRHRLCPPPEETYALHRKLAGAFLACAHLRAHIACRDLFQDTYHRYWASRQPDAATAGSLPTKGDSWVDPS
UniProt P12109: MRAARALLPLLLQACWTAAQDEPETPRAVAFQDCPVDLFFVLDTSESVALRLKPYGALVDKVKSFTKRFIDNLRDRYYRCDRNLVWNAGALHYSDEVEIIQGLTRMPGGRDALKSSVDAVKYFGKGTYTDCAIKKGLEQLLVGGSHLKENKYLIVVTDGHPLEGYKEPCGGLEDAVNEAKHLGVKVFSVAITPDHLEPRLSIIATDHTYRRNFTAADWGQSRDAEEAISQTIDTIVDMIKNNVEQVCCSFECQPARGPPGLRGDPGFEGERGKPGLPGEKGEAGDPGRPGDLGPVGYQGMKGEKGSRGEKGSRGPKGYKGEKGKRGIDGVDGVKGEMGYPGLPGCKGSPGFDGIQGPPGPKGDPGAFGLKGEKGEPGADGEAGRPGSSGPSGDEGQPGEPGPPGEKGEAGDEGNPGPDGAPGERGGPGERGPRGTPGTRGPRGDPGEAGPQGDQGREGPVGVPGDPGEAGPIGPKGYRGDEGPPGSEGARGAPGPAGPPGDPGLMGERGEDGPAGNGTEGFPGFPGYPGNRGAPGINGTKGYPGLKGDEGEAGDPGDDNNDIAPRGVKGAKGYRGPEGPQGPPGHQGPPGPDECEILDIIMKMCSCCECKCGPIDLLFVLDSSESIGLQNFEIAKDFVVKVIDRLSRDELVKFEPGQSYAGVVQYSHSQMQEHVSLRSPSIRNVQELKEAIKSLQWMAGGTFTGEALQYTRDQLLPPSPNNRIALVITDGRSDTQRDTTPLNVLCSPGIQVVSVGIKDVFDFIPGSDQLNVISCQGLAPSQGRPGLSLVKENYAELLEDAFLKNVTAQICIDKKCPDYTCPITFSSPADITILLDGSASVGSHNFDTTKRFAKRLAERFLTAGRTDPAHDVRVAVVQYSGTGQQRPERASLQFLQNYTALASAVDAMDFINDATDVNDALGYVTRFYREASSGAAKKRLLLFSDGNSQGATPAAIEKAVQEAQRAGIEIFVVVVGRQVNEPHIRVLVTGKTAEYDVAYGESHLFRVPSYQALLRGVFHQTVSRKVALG
UniProt Q96I36: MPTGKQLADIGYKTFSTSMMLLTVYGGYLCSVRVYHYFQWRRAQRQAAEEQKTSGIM
UniProt Q9UNS2: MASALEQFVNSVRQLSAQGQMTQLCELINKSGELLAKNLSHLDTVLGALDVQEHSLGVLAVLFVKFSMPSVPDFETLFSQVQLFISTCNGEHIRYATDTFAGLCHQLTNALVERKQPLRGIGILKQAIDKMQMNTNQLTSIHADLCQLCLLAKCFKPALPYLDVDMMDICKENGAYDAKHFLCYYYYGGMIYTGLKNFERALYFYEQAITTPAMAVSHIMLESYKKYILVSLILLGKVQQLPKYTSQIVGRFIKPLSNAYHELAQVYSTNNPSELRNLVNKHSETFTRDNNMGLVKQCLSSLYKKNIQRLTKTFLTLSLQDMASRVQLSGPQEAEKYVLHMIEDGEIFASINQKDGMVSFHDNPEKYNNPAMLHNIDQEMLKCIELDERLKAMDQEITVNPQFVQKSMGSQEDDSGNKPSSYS
UniProt Q6QEF8, whole entry, looked up: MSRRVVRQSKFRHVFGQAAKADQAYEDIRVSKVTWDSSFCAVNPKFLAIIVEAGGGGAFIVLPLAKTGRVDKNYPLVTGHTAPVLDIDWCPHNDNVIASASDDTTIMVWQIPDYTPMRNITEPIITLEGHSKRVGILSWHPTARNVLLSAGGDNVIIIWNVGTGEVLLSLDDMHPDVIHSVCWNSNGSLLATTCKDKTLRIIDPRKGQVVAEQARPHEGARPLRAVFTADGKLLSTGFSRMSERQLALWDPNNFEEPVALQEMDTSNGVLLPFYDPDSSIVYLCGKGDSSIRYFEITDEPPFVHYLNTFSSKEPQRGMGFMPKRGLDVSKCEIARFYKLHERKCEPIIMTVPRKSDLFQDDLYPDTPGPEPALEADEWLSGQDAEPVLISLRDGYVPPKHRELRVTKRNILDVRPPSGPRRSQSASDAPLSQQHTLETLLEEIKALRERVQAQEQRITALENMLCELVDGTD
UniProt Q14061: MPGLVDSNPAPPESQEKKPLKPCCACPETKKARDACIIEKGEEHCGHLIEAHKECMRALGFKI
UniProt P14406, whole entry, looked up: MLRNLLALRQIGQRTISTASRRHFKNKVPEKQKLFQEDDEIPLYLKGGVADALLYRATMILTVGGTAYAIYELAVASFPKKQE
UniProt Q5TA50: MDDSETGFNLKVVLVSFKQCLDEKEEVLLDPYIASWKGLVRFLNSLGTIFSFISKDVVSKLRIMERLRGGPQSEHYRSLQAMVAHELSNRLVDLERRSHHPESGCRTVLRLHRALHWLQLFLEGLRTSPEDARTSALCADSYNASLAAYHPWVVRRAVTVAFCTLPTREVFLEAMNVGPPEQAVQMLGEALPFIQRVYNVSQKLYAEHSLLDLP
UniProt Q8N9A8: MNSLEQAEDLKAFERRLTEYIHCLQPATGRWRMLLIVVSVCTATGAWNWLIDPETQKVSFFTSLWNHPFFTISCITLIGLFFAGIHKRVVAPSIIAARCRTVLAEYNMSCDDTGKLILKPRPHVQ
UniProt P24311, whole entry, looked up: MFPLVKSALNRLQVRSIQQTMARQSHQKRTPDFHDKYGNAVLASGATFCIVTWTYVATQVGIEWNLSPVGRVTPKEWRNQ
UniProt Q9H8M5: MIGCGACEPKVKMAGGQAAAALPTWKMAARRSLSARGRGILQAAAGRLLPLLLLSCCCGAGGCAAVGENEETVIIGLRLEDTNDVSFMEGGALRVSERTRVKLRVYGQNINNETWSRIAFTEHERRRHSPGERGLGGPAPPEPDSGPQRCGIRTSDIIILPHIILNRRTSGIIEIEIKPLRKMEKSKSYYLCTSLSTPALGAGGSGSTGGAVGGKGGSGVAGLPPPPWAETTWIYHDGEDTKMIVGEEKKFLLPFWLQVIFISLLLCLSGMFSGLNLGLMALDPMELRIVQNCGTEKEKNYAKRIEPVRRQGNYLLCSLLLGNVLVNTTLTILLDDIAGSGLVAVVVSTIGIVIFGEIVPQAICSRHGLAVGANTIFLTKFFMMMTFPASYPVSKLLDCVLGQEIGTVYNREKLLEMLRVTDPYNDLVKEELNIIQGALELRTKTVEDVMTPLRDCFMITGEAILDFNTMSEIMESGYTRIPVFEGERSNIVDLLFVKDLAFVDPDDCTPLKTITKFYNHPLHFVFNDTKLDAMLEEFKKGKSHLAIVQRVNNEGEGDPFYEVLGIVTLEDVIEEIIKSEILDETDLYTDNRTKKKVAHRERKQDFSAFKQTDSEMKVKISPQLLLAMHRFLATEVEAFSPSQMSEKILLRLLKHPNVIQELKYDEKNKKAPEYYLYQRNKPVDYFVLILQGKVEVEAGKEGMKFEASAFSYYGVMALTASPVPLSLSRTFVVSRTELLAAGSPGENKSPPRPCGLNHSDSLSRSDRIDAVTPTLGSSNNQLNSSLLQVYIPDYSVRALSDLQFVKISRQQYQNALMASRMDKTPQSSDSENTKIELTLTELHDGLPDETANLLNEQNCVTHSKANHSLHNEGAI
UniProt Q8IWV2: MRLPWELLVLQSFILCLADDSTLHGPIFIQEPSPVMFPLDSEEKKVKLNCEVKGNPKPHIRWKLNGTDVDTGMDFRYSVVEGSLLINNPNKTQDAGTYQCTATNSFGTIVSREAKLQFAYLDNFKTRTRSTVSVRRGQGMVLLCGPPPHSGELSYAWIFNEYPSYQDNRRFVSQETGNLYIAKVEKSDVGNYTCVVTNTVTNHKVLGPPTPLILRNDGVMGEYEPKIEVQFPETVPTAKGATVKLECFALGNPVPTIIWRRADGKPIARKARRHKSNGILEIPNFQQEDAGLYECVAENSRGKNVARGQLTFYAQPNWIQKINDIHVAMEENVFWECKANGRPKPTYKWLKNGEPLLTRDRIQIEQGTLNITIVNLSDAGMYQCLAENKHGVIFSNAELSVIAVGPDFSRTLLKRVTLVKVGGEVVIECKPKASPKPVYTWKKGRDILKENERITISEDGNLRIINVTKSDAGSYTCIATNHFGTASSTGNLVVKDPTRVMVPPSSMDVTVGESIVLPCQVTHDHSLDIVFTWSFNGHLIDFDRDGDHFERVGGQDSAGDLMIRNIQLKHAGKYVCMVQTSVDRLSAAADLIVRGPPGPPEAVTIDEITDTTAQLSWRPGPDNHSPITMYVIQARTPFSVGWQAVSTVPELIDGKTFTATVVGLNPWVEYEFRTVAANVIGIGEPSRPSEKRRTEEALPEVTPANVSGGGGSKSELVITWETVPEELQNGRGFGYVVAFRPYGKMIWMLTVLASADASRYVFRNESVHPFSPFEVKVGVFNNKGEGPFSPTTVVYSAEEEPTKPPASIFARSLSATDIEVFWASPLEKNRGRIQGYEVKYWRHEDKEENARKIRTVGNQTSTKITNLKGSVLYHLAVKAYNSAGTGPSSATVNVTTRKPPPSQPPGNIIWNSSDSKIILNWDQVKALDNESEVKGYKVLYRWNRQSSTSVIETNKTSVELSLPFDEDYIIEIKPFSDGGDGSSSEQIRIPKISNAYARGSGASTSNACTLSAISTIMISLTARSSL
UniProt O14810: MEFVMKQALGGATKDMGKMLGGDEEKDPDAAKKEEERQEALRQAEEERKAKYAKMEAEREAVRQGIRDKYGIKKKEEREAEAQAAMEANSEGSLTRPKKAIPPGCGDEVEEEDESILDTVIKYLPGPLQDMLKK
UniProt Q86WW8: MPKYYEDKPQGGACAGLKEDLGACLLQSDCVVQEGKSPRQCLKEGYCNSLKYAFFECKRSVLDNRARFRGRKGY
UniProt O75976: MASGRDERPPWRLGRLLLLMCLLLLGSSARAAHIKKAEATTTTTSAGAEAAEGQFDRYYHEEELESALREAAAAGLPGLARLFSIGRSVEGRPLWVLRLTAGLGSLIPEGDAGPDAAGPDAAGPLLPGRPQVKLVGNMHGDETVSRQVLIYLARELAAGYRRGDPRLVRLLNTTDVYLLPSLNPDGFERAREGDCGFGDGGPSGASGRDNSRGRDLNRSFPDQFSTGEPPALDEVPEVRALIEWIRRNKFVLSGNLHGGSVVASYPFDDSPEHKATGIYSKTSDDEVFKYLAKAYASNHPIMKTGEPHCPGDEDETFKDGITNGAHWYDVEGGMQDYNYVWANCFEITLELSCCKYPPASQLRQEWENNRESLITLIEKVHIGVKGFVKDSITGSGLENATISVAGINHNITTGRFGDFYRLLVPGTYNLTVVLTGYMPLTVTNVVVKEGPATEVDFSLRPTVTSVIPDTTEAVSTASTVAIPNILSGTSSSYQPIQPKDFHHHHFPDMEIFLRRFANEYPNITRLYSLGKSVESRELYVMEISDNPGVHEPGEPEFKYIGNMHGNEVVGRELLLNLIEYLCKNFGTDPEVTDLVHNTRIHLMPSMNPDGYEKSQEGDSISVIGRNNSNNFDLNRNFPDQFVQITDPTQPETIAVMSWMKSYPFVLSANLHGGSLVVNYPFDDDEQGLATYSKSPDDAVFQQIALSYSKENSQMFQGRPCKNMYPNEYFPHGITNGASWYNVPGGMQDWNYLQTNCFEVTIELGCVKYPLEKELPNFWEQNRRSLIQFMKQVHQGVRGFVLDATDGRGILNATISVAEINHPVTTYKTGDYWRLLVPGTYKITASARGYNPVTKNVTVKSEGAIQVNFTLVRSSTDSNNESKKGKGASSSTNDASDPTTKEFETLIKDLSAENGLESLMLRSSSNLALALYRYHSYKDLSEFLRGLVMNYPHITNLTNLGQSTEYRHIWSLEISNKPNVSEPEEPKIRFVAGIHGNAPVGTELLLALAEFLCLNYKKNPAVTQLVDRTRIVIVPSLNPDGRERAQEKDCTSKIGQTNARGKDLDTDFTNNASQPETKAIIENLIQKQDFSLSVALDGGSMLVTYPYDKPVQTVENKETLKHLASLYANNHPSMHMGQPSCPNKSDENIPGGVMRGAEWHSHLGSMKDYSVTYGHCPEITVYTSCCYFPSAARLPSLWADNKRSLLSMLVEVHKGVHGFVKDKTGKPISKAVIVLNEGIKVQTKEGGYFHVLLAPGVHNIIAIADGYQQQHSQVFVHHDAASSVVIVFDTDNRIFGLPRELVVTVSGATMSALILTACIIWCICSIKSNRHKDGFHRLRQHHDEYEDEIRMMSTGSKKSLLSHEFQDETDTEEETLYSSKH

Experiments:
Test in all cases: log2 fold change, soluble protein after heating vs DMSO (PISA); higher = thermal stabilisation; K562 lysate, 10 uM; active = over 0.2 and 3.5 SD of the protein, either way, in both replicates (recomputed)
dasatinib = compound: Cc1nc(Nc2ncc(C(=O)Nc3c(C)cccc3Cl)s2)cc(N2CCN(CCO)CC2)n1 [dasatinib]
Method in brief: (§1)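 The values are log-two fold changes in thermal stability compared with solvent controls and come from duplicates. They were obtained by TMTpro 16plex LC-MS/MS, with channel sums equalised, on the supernatant after 21,000xg for 90 min. That supernatant came from crude K562 extract at 1 mg/mL protein treated with 10 μM compound for 30 min, heated for 3 min across 48°C-58°C, pooled and brought to 0.5% NP-40 at 4°C.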

[1] = compound: Cn1cc(-c2ccc3c(c2)CCN3C(=O)Cc2cccc(C(F)(F)F)c2)c2c(N)ncnc21
Method in brief: as §1

[2] = compound: NC1(c2ccc(-c3nc4ccn5c(=O)[nH]nc5c4cc3-c3ccccc3)cc2)CCC1
Method in brief: as §1

nilotinib = compound: Cc1cn(-c2cc(NC(=O)c3ccc(C)c(Nc4nccc(-c5cccnc5)n4)c3)cc(C(F)(F)F)c2)cn1 [nilotinib]
Method in brief: as §1

[3] = compound: Cc1nc(Nc2n[nH]c3c2CN(C(=O)N[C@H](CN(C)C)c2ccccc2)C3(C)C)c2sccc2n1
Method in brief: as §1

[4] = compound: Cc1ncc(-c2ccnc(Nc3ccc(S(C)(=O)=O)cc3)n2)n1C(C)C
Method in brief: as §1

quisinostat = compound: Cn1cc(CNCC2CCN(c3ncc(C(=O)NO)cn3)CC2)c2ccccc21 [quisinostat]
Method in brief: as §1

tipifarnib = compound: Cn1cncc1[C@@](N)(c1ccc(Cl)cc1)c1ccc2c(c1)c(-c1cccc(Cl)c1)cc(=O)n2C [tipifarnib]
Method in brief: as §1

[5] = compound: NC(=O)Nc1cc(-c2cccc(F)c2)sc1C(=O)N[C@H]1CCCNC1
Method in brief: as §1

[6] = compound: NC(=O)c1cnc(N[C@@H]2CCCC[C@@H]2N)nc1Nc1cccc(-n2nccn2)c1
Method in brief: as §1

Target | log2 fold change (dasatinib) | log2 fold change [1] | log2 fold change [2] | log2 fold change (nilotinib) | log2 fold change [3] | log2 fold change [4] | log2 fold change (quisinostat) | log2 fold change (tipifarnib) | log2 fold change [5] | log2 fold change [6]
COLEC11 isoform 10 (UniProt Q9BWP8) | inactive: -0.009 | inactive: 0.077 | inactive: 0.032 |  |  |  |  |  |  | 
COQ8B (UniProt Q96D53) |  |  | inactive: 0.076 | inactive: -0.02 | inactive: -0.209 | inactive: -0.241 | inactive: 0.036 | inactive: -0.035 | inactive: -0.004 | 
COL6A1 (UniProt P12109) |  |  |  | inactive: -0.219 | inactive: -0.326 | inactive: 0.029 |  | inactive: 0.054 |  | 
COX14 (UniProt Q96I36) |  |  | inactive: 0.007 | inactive: -0.01 | inactive: -0.029 | inactive: 0.01 | inactive: -0.003 | inactive: 0.043 | inactive: 0.07 | inactive: -0.101
COPS3 isoform 2 (UniProt Q9UNS2) |  |  |  | inactive: 0.192 | inactive: -0.027 | inactive: 0.237 |  | inactive: -0.003 |  | inactive: 0.298
COQ3 (UniProt Q9NZJ6) |  |  | inactive: 0.078 | inactive: -0.005 | inactive: -0.021 | inactive: 0.052 |  | inactive: -0.013 |  | inactive: -0.012
CORO6 isoform 5 (UniProt Q6QEF8) |  |  |  | inactive: -0.01 | inactive: 0.08 | inactive: 0.087 | inactive: -0.127 | inactive: -0.003 | inactive: 0.079 | inactive: -0.012
COG2 (UniProt Q14746) | inactive: -0.024 | inactive: -0.002 | inactive: 0.009 | inactive: 0.024 | inactive: 0.008 | inactive: 0.096 | inactive: -0.029 | inactive: -0.06 | inactive: 0.055 | inactive: 0.001
CPEB4 (UniProt Q17RY0) | inactive: -0.143 | inactive: -0.027 | inactive: -0.061 | inactive: -0.078 | inactive: 0.101 | inactive: 0.057 |  | inactive: 0.018 |  | inactive: 0.049
COX17 (UniProt Q14061) |  |  | inactive: 0.028 | inactive: -0.13 | inactive: -0.272 | inactive: -0.198 | inactive: -0.224 | inactive: -0.082 | inactive: 0.053 | inactive: -0.02
COX7A2 (UniProt P14406) |  |  | inactive: -0.016 | inactive: -0.039 | inactive: 0.012 | inactive: 0.103 | inactive: -0.052 | inactive: 0.026 | inactive: -0.02 | inactive: -0.024
COL1A1 (UniProt P02452) |  |  | inactive: -0.025 |  |  |  |  |  |  | 
CPTP (UniProt Q5TA50) | inactive: -0.08 | inactive: 0.304 | inactive: 0.006 | inactive: 0.062 | inactive: -0.034 | inactive: -0.067 | inactive: -0.082 | inactive: -0.084 | inactive: 0.08 | 
CNEP1R1 isoform 2 (UniProt Q8N9A8) |  |  |  | inactive: -0.178 | inactive: 0.16 | inactive: -0.096 |  | inactive: -0.017 |  | 
COX7B (UniProt P24311) | inactive: -0.008 | inactive: 0.025 | inactive: 0 | inactive: 0.001 | inactive: 0.017 | inactive: 0.016 | inactive: 0.047 | inactive: 0.023 | inactive: -0.03 | inactive: -0.047
CNNM2 (UniProt Q9H8M5) | inactive: -0.021 | inactive: -0.044 | inactive: -0.006 |  |  |  | inactive: 0.217 |  | inactive: -0.077 | inactive: -0.001
CNOT4 isoform 9 (UniProt O95628) | inactive: -0.062 | inactive: -0.052 | inactive: -0.024 |  |  |  | inactive: 0.17 |  | inactive: -0.058 | inactive: 0.081
CORO2A (UniProt Q92828) | inactive: -0.033 | inactive: 0.074 | inactive: 0.057 | inactive: -0.045 | inactive: -0.007 | inactive: 0.001 | inactive: -0.04 | inactive: 0.028 | inactive: 0.021 | inactive: 0.005
CNOT7 (UniProt H0YBT3) |  |  |  |  |  |  | inactive: -0.31 |  | inactive: -0.025 | 
CNTN4 (UniProt Q8IWV2) |  |  | inactive: -0.024 | inactive: 0.127 | inactive: -0.06 | inactive: 0.306 | active: -0.561 | inactive: -0.006 | inactive: 0.151 | inactive: 0.072
COL12A1 (UniProt Q99715) | inactive: -0.097 | inactive: 0.198 | inactive: -0.154 |  |  |  | inactive: -0.056 |  | inactive: 0.166 | inactive: 0.827
CPLX1 (UniProt O14810) | active: 1.05 | inactive: -0.134 |  |  |  |  |  |  |  | inactive: 0.178
COA5 (UniProt Q86WW8) | inactive: 0.007 | inactive: 0.01 | inactive: 0.004 |  |  |  | inactive: 0.035 |  | inactive: 0.025 | 
CPD (UniProt O75976) | inactive: -0.003 | inactive: -0.017 | inactive: -0.053 | inactive: -0.003 | inactive: -0.008 | inactive: -0.007 | inactive: -0.012 | inactive: 0.01 | inactive: -0.008 | inactive: -0.012
COL6A3 (UniProt P12111) | inactive: 0.032 | inactive: -0.055 | inactive: -0.155 | inactive: 0.05 | inactive: 0.151 | inactive: 0.02 | inactive: 0.123 | inactive: -0.009 | inactive: 0 | 
COL25A1 (UniProt Q9BXS0) |  |  |  | inactive: 0.125 | inactive: 0.114 | inactive: 0.119 |  | inactive: -0.166 |  | inactive: -0.056
COX10 (UniProt Q12887) | inactive: -0.002 | inactive: 0.019 |  |  |  |  | inactive: 0.016 |  | inactive: -0.149 | 

Just log2 fold change [4], log2 fold change [5] and log2 fold change (nilotinib), for some of the entries so far:
Target | log2 fold change [4] | log2 fold change [5] | log2 fold change (nilotinib)
CPEB4 (UniProt Q17RY0) | inactive: 0.057 |  | inactive: -0.078
COX17 (UniProt Q14061) | inactive: -0.198 | inactive: 0.053 | inactive: -0.13
